Values are the deposited “Percent Effect”, in %.
How 0% and 100% were set is not recorded. Most values in the screen are low, and negative values occur.
This is an unselected part of the compounds tested.
A dash means the value is not listed here; it may have been measured.

Mtb heat-shock: 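Assay on Mycobacterium tuberculosis, filed only as a heat shock assay from Cornell; the read-out is not stated. The concentration is filed as 10 mM, unlikely as a test dose, so the dose is not known. Higher reads as stronger inhibition (inferred: compounds with an IC50 in retests scored well above the rest). Size under these conditions: about 69,000 compounds, about 930 of them at 50% or above in at least one test.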
Mtb growth Cornell: 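Whole-cell assay for inhibitors of Mycobacterium tuberculosis growth, labelled Cornell in the record; the read-out is not stated. The concentration is filed as 10 mM, unlikely as a test dose, so the dose is not known. Higher means stronger inhibition (inferred from two other growth screens of the library). Size under these conditions: about 53,000 compounds, about 900 of them at 50% or above in at least one test.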

| # | structure | Mtb heat-shock | Mtb growth Cornell |
|---|---|---|---|
| 1 | `CCN1CCN(C(=O)C(C)N2CCN(Cc3nccn3C)CC2)CC1` (centres unmarked) | -2.243 | 17.31 |
| 2 | `Cc1csc(NC(=O)C2CSCCC(=O)N2)n1` (centres unmarked) | 9.063 | 8.366 |
| 3 | `CC1(NC(=O)Cc2cccs2)CCS(=O)(=O)C1` (centres unmarked) | 10.66 | 2.314 |
| 4 | `[H][C@@]12CCN(Cc3ccncc3)[C@]1([H])CC[C@H](COCC1CCOCC1)O2` | 4.055 | -10.27 |
| 5 | `CC(C)(CO)CCCNC(=O)NC1(c2cccc(F)c2)CC1` | 2.874 | 18.85 |
| 6 | `CSc1ccccc1CCC1CCS(=O)(=O)C1` (centres unmarked) | -24.69 | - |
| 7 | `O=C(c1c2c(N3CCCC3)ncnc2n2ccccc12)N1CCOCC1` | 6.45 | 13.25 |
| 8 | `Cc1cnc(CN2CCC(N(C)Cc3nnc(C)n3C)C2)cn1` (centres unmarked) | 9.606 | - |
| 9 | `Cc1ccc(C(=O)N2CC3(CCCCC3)c3cc(C(=O)O)ccc32)cn1.O=C(O)C(F)(F)F` | -1.531 | 10.25 |
| 10 | `CN1CCC2(CCN(c3ncc(F)cn3)CC2)C1=O.O=C(O)C(F)(F)F` | 12.91 | -2.185 |
| 11 | `COCC(=O)N1C[C@@H](CN2CCCN(C)CC2)[C@@H](CO)C1` | -0.2182 | 14.44 |
| 12 | `Cc1cc(C(F)(F)F)cc(N2CCC3(CCC(=O)N(CCO)C3)CC2)n1` | -33.22 | 8.703 |
| 13 | `CC(C)N1CCCC2(CCN(C(=O)CCCn3ccnc3)C2)C1=O` (centres unmarked) | 7.55 | -5.195 |
| 14 | `O=C(O)C(F)(F)F.[H][C@]12CCN(C(=O)Cc3ccc(OC)cc3)CC[C@@]1([H])S(=O)(=O)CCN2C` | -23.6 | -5.034 |
| 15 | `CCn1cc(C(=O)N2CCOCC2)cn1` | 1.052 | - |
| 16 | `CC(=O)N1CCN(CCNS(=O)(=O)c2cccc(F)c2)CC1` | 15.86 | 17.28 |
| 17 | `O=C(O)Cn1nc(C2CC2)c2c(-c3cccs3)ccnc21` | -21.48 | 3.387 |
| 18 | `COc1cccc2c1OCC(C(=O)N1CCN(C3CCSCC3)CC1)C2` (centres unmarked) | -16.42 | 18.06 |
| 19 | `O=C(O)C(F)(F)F.O=C(O)C(F)(F)F.[H][C@@]12CCN(C(=O)c3cnn(C)c3)[C@@]1([H])CCN2Cc1ccncc1` | -0.4567 | 25.63 |
| 20 | `Cc1ccc(C2CN(CCCS(=O)(=O)C(C)C)CCO2)c(C)c1` (centres unmarked) | 18.95 | 25.76 |
| 21 | `COc1ccccc1-c1noc(CCC(=O)NC(C)Cn2cccn2)n1` (centres unmarked) | 5.625 | -4.79 |
| 22 | `[H][C@@]12CN(CC3CCC3)C[C@]1([H])OCCN2c1ncc(F)cn1` | 11.75 | -6.289 |
| 23 | `O=C(c1ccn(COc2ccc(F)cc2)n1)N1CCCC1` | 10.65 | - |
| 24 | `CCNC(=O)Nc1ccc(N2CCC(OC)CC2)c(C(F)(F)F)c1` | -23.23 | 9.117 |
| 25 | `[H][C@@]12CS(=O)(=O)C[C@]1([H])N(S(=O)(=O)N1CCCCCC1)CCN2CC` | 11.16 | -5.836 |
| 26 | `O=C(NCCN1CCNCC1)c1c(O)c2ccccc2[nH]c1=O` | -15.49 | - |
| 27 | `CCn1ccnc1CN1CCN(CC(=O)NC2CCOCC2)CC1` | -24.08 | - |
| 28 | `COc1cccc(CN(C)C(C)c2ccco2)c1OCCn1ccnc1` (centres unmarked) | -24.08 | - |
| 29 | `c1cc(-c2noc(C3CCC3)n2)cc(N2CCCCC2)n1` | 13.23 | 1.179 |
| 30 | `Cc1ccc(C)c(OCC(O)CN(C)CC(=O)Nc2cc(C)on2)c1` (centres unmarked) | 0.1916 | - |
| 31 | `COc1ncccc1CNC(=O)N1CCC(CN2CCOCC2)CC1` | -18.36 | -2.796 |
| 32 | `CC(C)c1noc(C(C)S(=O)(=O)CC(=O)N2CCCC2)n1` (centres unmarked) | -2.148 | -27.33 |
| 33 | `O=C(CCn1ccc2cc(Br)ccc21)NCc1ccc(C(=O)O)cc1` | -29.04 | 38.36 |
| 34 | `CNCc1cc(F)ccc1Oc1ccc(F)cc1F` | -7.612 | -10.94 |
| 35 | `O=C(O)C(F)(F)F.O=S(=O)(C1CC1)N1CCc2ncnc(-c3ccncc3)c2CC1` | -19.61 | 21.58 |
| 36 | `CCCNC(=O)c1cccc(CNCc2csc(CC)n2)c1` | 4.994 | -1.821 |
| 37 | `COCC1CC2(CCN(c3cc(OC)ncn3)CC2)CN1C(C)C.O=C(O)C(F)(F)F` (centres unmarked) | 13.86 | -0.4562 |
| 38 | `CC(C)(C)OC(=O)NCCNC(=O)c1ccc(-c2ccco2)[nH]c1=O` | 7.741 | - |
| 39 | `c1ccc(NCc2cnc3n2CCN(C2CCOC2)CC3)nc1` (centres unmarked) | -30.91 | -37.95 |
| 40 | `Cn1cnc(CN2Cc3nccn3CC2c2ccccc2)c1` (centres unmarked) | -13.43 | 25.78 |

Measurements from “University of Dundee, Small-Polar-MMV Screening Library” (2021), ChEMBL document CHEMBL3988442.